# Some of the results follow. Further columns of the screen follow, without active or inactive calls. Most of these compounds were active or inconclusive in the main read-out, so they are no random draw. Potencies come from curve fits of mixed quality, noted in brackets.
# Experiment: IkB Signaling
# Settings: ABC-DLBCL IkBa-CBG/CBR dual luciferase ratio (green luciferase fused to IkBa over red control in OCI-Ly3 lymphoma cells), 4 h; measured here: control luc red channel unless noted
# Summary of the method: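 Curves were fitted separately to fusion (green), unfused (red) and ratio luminescence, then classed by r2, magnitude and activity. Cells: OCI-Ly3, 4 h compound plus doxycycline at 37C; 10 uM MG-132 defined full response.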
row,Structure (SMILES),AC50
1,O=C(Cc1ccccc1)Nc1ccccc1N1CCN(c2ccccc2)CC1,"15.8 µM [falling, partial curve]"
2,CN(Cc1ccccc1)S(=O)(=O)c1ccc(F)c(C(=O)Nc2cccc(Cl)c2Cl)c1,"31.6 µM [falling, partial curve, poor fit]"
3,Cc1ccc(C(C)(C)C)c(OCC(=O)NCCc2nc3ccccc3[nH]2)c1,"20 µM [falling, partial curve]"
4,O=C(NCc1cccs1)c1nc2c(nnn2Cc2ccccc2Cl)c(=O)[nH]1,"15.8 µM [falling, partial curve]"
5,CCOc1ccccc1-n1nnc(-c2nc(-c3ccccc3)no2)c1N,"5.01 µM [falling, partial curve]"
6,Cc1c(/C=C(\C#N)C(=O)Nc2cccc(Cl)c2)c2ccccc2n1Cc1ccccc1Cl,"0.794 µM [falling, full curve]"
7,Cc1c(Cl)cccc1NC(=O)CN1C(=O)COc2ccc(S(=O)(=O)Nc3ccccc3)cc21,"10 µM [falling, full curve]"
8,COc1cccc(-n2c(SCC(=O)NC3CCCCC3)nc3n[nH]c(C)c3c2=N)c1,"15.8 µM [falling, partial curve]"
9,COc1ccc(NC(=O)c2ccc3c(c2)CCN3S(=O)(=O)c2ccc(C)cc2)cc1Cl,"0.316 µM [rising, full curve]"
10,CCOC(=O)N1CCC(Nc2cccc(SC)c2)CC1,"25.1 µM [falling, partial curve]"
11,CC(C)NS(=O)(=O)c1ccc2nc(NC(=O)c3cncc(Br)c3)sc2c1,"39.8 µM [falling, single point]"
12,COc1cc(NC(=O)CSc2nc3nc(C)c(Cc4ccc(C)cc4)c(C)n3n2)cc(OC)c1,"39.8 µM [falling, partial curve, poor fit]"
13,CCOC(=O)N1CCc2c(sc3c2c(=O)n(CCc2ccccc2)c(=O)n3Cc2ccc(F)cc2)C1,"12.6 µM [falling, partial curve]"
14,O=C(CSc1nc(-c2ccccc2)no1)N1CCCCC1,"1.26 µM [falling, partial curve]"
15,Cc1ccccc1-c1nn2c(=O)cc(CN3CCN(C(=O)c4ccc(C(C)(C)C)cc4)CC3)nc2s1,"31.6 µM [falling, single point]"
16,CCCCCCOC(=O)C(C#N)c1nc2ccccc2nc1N1CCN(C)CC1 (stereo not drawn),"39.8 µM [falling, partial curve]"
17,CCOc1ccccc1-n1cc2c(c1-c1ccc(OC)cc1)c(=O)n(C)c(=O)n2C,"39.8 µM [falling, single point]"
18,COC(=O)c1ccc(NC(=O)CN2CCN(c3ccc(Cl)cc3)CC2)cc1,"20 µM [falling, partial curve]"
19,Cc1ccc(-n2c(SCC(=O)NCc3ccc(F)cc3)nc3c([nH]c4ccccc43)c2=O)cc1,"3.16 µM [rising, partial curve]"
20,Cc1cc(C)cc(NC(=O)CCc2c(C)nn(-c3ccc(N4CCCC4)nn3)c2C)c1,"15.8 µM [falling, single point]"
21,COc1cc2c(cc1OC)C(COc1ccc(F)cc1)N(C(=O)Cc1ccc(F)cc1)CC2 (stereo not drawn),"39.8 µM [falling, single point]"

# Looked up above:
# Value of Cc1ccc(C(C)(C)C)c(OCC(=O)NCCc2nc3ccccc3[nH]2)c1 under AC50: 20 µM [falling, partial curve]
# Value of COc1ccc(NC(=O)c2ccc3c(c2)CCN3S(=O)(=O)c2ccc(C)cc2)cc1Cl under AC50: 0.316 µM [rising, full curve]

# A section from further up:
row,Structure (SMILES),AC50
11,CC(C)NS(=O)(=O)c1ccc2nc(NC(=O)c3cncc(Br)c3)sc2c1,"39.8 µM [falling, single point]"
12,COc1cc(NC(=O)CSc2nc3nc(C)c(Cc4ccc(C)cc4)c(C)n3n2)cc(OC)c1,"39.8 µM [falling, partial curve, poor fit]"

# Remaining list, next part:

row,Structure (SMILES),AC50
1,COc1ccccc1C(=O)NCCc1nc2ccccc2n1C,"10 µM [falling, partial curve]"
2,Cc1ccc(Nc2c(-c3ccncc3)nc3ccc(C)cn23)cc1,"31.6 µM [falling, partial curve]"
3,Cc1cc(NC(=O)C2CCCCC2)nc2c1c(=O)oc1ccccc12,"20 µM [falling, partial curve]"
4,Cc1ccc(CN(C(=O)COc2cccc([N+](=O)[O-])c2)c2ccccn2)cc1,"25.1 µM [falling, single point]"
5,CCOC(=O)C1CCN(c2ncnc3c2nnn3C)CC1,"6.31 µM [rising, partial curve]"
6,O=C(Nc1ccc2c(c1)OCO2)c1noc2c1CCCCC2,"5.01 µM [falling, partial curve]"
7,CC(C)NC(=O)c1ccc(-n2c(-c3ccccc3)cc3c2CCCCC3)cc1,"10 µM [falling, partial curve]"
8,Cc1cc(C)cc(OCC(=O)Nc2ccc(-c3nc4ccccc4s3)cc2)c1,"0.398 µM [rising, full curve]"
9,Cn1nnc2c(N3CCN(c4ccccc4F)CC3)ncnc21,"5.01 µM [rising, partial curve]"
10,Cc1ccccc1C(=O)Nc1cccc(C(=O)OCc2cc(=O)n3c4c(sc3n2)CCCC4)c1,"2.51 µM [falling, full curve]"
11,Cc1ccc(NC(=O)N(Cc2cn(C)c3ccccc23)C2CCCCC2)cc1C,"7.94 µM [falling, partial curve]"
12,CCC1CCCCN1CC(=O)N1CCCc2c1c(=O)oc1ccc(OCc3ccccc3)cc21 (stereo not drawn),"20 µM [falling, partial curve]"
13,CCN1CCN(c2ccc(NS(=O)(=O)c3c(C)nc4sccn4c3=O)cc2Cl)CC1,"15.8 µM [falling, partial curve]"
14,COc1ccc(C(=O)CC2(O)C(=O)N(Cc3ccccc3Cl)c3ccccc32)cc1 (stereo not drawn),"25.1 µM [falling, single point]"
15,O=C(CCCCCn1c(SCc2ccncc2)nc2ccccc2c1=O)NCc1ccco1,"12.6 µM [falling, partial curve]"
16,CC(C)c1ccc(CNc2nc(-c3ccco3)nn2S(=O)(=O)c2ccc3ccccc3c2)cc1,"10 µM [falling, partial curve]"
17,O=C(CSc1nc(-c2ccccc2)cs1)NC(=O)NCc1ccco1,"7.94 µM [falling, partial curve]"
18,CCCS(=O)(=O)c1ncc(Cl)c(C(=O)Nc2scc(-c3ccccc3)c2C(=O)OCC)n1,"7.94 µM [falling, full curve]"
19,O=S(=O)(c1ccccc1)c1nc(-c2ccc(Cl)cc2Cl)oc1N1CCCCCC1,"39.8 µM [falling, single point]"
20,O=C1CC(c2nc3ccccc3n2Cc2c(F)cccc2Cl)CN1c1cccc(C(F)(F)F)c1 (stereo not drawn),"12.6 µM [falling, partial curve]"
21,COc1ccc(NC(=O)CC2C(=O)N(c3ccc(C)cc3)C(=O)N2CCc2ccccc2)cc1 (stereo not drawn),"20 µM [falling, partial curve]"

row,Structure (SMILES),AC50
1,COC(=O)c1c(NC(=O)CCCOc2ccc(C)cc2)sc2c1C(C(=O)OC)CC2 (stereo not drawn),"6.31 µM [rising, single point]"
2,Cc1nc2ccn(Cc3ccco3)c(=O)c2cc1C(=O)N1CCN(c2ccccc2F)CC1,"31.6 µM [falling, single point]"
3,CCOC(=O)C1CCCN(CC(=O)Nc2c(C(=O)OC)[nH]c3ccc(Br)cc23)C1 (stereo not drawn),"31.6 µM [falling, single point]"
4,COc1cccc(OCc2nc3ccccc3n2CCOc2ccccc2)c1,"20 µM [falling, partial curve]"
5,Cc1ccc(S(=O)(=O)N2CCCC(c3nc4c(nnn4Cc4ccc(OC(F)(F)F)cc4)c(=O)[nH]3)C2)cc1 (stereo not drawn),"3.16 µM [rising, full curve, poor fit]"
6,O=C(Cn1c(=O)nc(-c2ccccc2)c2cc(Cl)ccc21)NCc1ccccc1,"31.6 µM [falling, partial curve, poor fit]"
7,Cn1nc(-c2ccc(OCC(=O)Nc3ccccc3)cc2)c2ccccc2c1=O,"31.6 µM [falling, partial curve]"
8,COc1cc(OC)cc(C(=O)Nc2ccc(S(=O)(=O)Nc3cc(C)nc(C)n3)cc2)c1,"10 µM [falling, partial curve]"
9,CCCCn1c(COc2cccc(OC)c2)nc2ccccc21,"20 µM [falling, single point]"
10,COc1ccc(CCN2CC(C(=O)NCCc3ccc(C)cc3)CC2=O)cc1OC (stereo not drawn),"0.0126 µM [falling, full curve, poor fit]"
11,CC(C)(CC(=O)OCC(=O)Nc1ccc(F)c(Cl)c1)CC1=NS(=O)(=O)c2ccccc2N1,"15.8 µM [falling, partial curve]"
12,Cc1cc(C)nc(SCC(=O)N2CCOCC2)n1,"31.6 µM [rising, partial curve]"
13,Cc1ccccc1NC(=O)c1sc2nc(-c3ccncc3)ccc2c1N,"15.8 µM [falling, partial curve]"
14,CC(=O)Cc1nsc(NC(=O)c2ccc(-c3ccccc3Cl)o2)n1,"5.01 µM [falling, partial curve]"
15,CC(=O)Oc1c(C)cc(O)c2ccccc12,"12.6 µM [falling, partial curve]"
16,CCOC(=O)c1ccc(N2C(=O)c3n[nH]c(-c4cccs4)c3C2c2ccc(C)cc2)cc1 (stereo not drawn),"20 µM [falling, partial curve, poor fit]"
17,COC(=O)c1ccc(CSc2nc3scc(-c4cccs4)c3c(=O)[nH]2)o1,"15.8 µM [falling, partial curve]"
18,CCCN(CCC)CCCNC(=O)Cn1ncc2c3ccccc3n(Cc3ccc(F)cc3)c2c1=O,"12.6 µM [falling, single point]"
19,CCCCOc1cccc(C(=O)Nc2cc3nn(-c4ccc(F)cc4)nc3cc2C)c1,"1 µM [rising, full curve, poor fit]"
20,Clc1cccc(-c2cc3nc4c(c(N5CCOCC5)n3n2)CCCC4)c1,"20 µM [falling, partial curve]"
21,Cc1cc2ccccc2n1-c1ccc(C(=O)N2CCCCC2)s1,"31.6 µM [falling, partial curve]"

# Source: PubChem BioAssay AID445 (National Center for Advancing Translational Sciences (NCATS), 2006)
